The text below walks through data of article PMC7447434, “Atomic structure of a mitochondrial complex I intermediate from vascular plants” (eLife, 2020).

Experiment [1] has as its target T1, NDUX1 (Vigna radiata).
T1 sequence: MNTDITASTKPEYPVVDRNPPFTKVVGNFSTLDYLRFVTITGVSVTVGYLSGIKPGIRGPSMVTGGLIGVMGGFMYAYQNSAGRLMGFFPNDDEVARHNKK
In words: cryo-EM structure; CI* (~800 kDa assembly intermediate) from V. radiata mitochondrial membranes, digitonin-extracted, amphipol A8-35-stabilised, sucrose gradient; 6 mg/ml in 20 mM HEPES, 150 mM NaCl, 1 mM EDTA, 0.1% digitonin, pH 7.8; nominal resolution 3.9 Å; interfaces of the γCA domain listed from the model with PDBePISA; both purified.

The target of experiment [2] is T2, P2 (Vigna radiata).
T2 sequence: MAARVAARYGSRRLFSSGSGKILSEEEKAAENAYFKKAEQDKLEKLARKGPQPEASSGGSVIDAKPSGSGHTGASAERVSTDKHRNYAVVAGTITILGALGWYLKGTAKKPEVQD
The experiment is described as above.

These are yes or no findings as the source states them, for the method shown. Some entries that bind do so weakly or less than the wild type.

B1: P2 (protein, UniProt A0A1S3TGE7 1-115)
chain: T2 sequence
Take B1: the binding entry in experiment [1] is “binds”.

B2: CA1 (natural protein, Vigna radiata, UniProt A0A1S3VT00 1-270, looked up)
chain: MGTLGRAFYAVGFWIRETGQAIDRLGSRLQGNYLFQEQLSRHRPLMNLFDKYPSVHKDAFVAPSASLLGDVHVGPASSIWYGCVLRGDVNGIVIGSGTNIQDNSLVHVAKSNLTGKVLPTIIGDNVTVGHSAVLQGCTVEDEAFIGMGATLLDGVYVEKHAMVAAGALVRQNTRIPYGEVWGGNPAKFLRKLTEDEMAFFSQSALNYSNLAQAHAAENAKELEETEFVKVLHKKFAPRGEEYDSILDGGQETPAKLNLQDNVLLDKAPKA
notes: CA1, gamma-carbonic-anhydrase domain subunit of Vigna radiata mitochondrial complex I; 270 residues; residues 3-222 modelled, 223-233 as poly-Ala; also called carbonic-anhydrase-1 subunit; Gamma-CA 1 (A. thaliana name)
As for B2, the binding result in experiment [2] was “binds”.
